# Test results taken from PubChem BioAssay AID1671193 (National Center for Advancing Translational Sciences (NCATS), 2021).
# Only a part is listed here, and it is no random draw. Records with an inconclusive call do not appear. Active and inactive are the calls of the source. Calls come from the whole dose curve; as a rule, active = well fitted cell-killing curve with a large enough effect; inconclusive = small, poorly fitted or top-dose-only effect, or effect the other way; inactive = flat fitted curve, though single readings scatter.
# Test: GF-AFC viability counterscreen for inhibitors of alpha-synuclein gene (SNCA) expression; note: nearly all actives have a fitted effect of over 30% in size
# Details: HEK-293-SNCA-luc viability, GF-AFC fluorescence, 24 h
# Excerpt: Assay Submitter (PI): Daniel R. Scoles Ph.D.
# Department of Neurology, University of Utah, Salt Lake City, Utah
# Accumulation of alpha-synuclein is a main underlying pathological feature of Parkinson's disease (PD) and alpha-synucleinopathies, for which lowering expression of the alpha-synuclein gene (SNCA) is a potential therapeutic avenue. Using a cell-based luciferase reporter of SNCA expression we performed a quantitative high throughput screen (qHTS) of 155,885 compounds in dose response. The screening assay was generated using genome editing to insert the luciferase gene downstream and in frame of the SNCA gene in HEK-293 cells (1). A viability counterscreen using GF-AFC was used to eliminate cytotoxic and false positive compounds. […]
# Described herein are the results of the GF-AFC viability counterscreen for SNCA inhibitors; inactivity (no decrease in fluorescence signal, not cytotoxic) is the desired output for this assay. […]
# 7; Detector; Fluorescence; Measure fluorescence with ViewLux microplate reader (PerkinElmer) equipped with 405/10 excitation and 540/25 emission filters. […]
# 10; Detector; Luminescence; Measure luminescence with ViewLux microplate reader (PerkinElmer) equipped with clear filters. […]
# 10; Signals were analyzed, and dose-response curves were fit using the Hill equation. […]
# Potency is the fitted concentration of half-maximal effect.
row,SMILES,Potency
1,CN[C@@H]1C[C@H]2O[C@@](C)([C@@H]1OC)n1c3ccccc3c3c4c(c5c6ccccc6n2c5c31)C(=O)NC4,active: 4.74 µM
